# In US20240199626A1, “COMPOUNDS WITH IMPROVED CARDIAC SAFETY FOR THE TREATMENT OF CANCER AND NEURODEGENERATIVE DISORDERS” (priority 2021, published 2024):
# For some of these results: At least one compound was matched to its structure with a doubt left. Some of these results come from one statement about several compounds together.
# Tests used:
# [1] = tested on: K-562 cells; assay: Cell viability / growth inhibition (AlamarBlue), K-562; format: cell-based, human; conditions: highest concentration without effect
# Method: K562 and K562-T315I: The Leukemia cell lines K562 were purchased and maintained as recommended by ATCC (Manassas, VA, USA). Briefly, K562 cells were cultured in suspension in RPMI1640 (ThermoFisher Scientific, USA) supplemented with 10% fetal bovine serum and Pen/Strep/L-Glutamine. […] Briefly, one million K562 cells were seeded in 6-well plates and transfected with Lipofectamine 2000 and 1 μg of CRISPR/Cas9 vector (pSpCas9(BB)-2A-GFP) incorporating the guide sequence ([…]), and Lipofectamine RNAiMax and 4 μg of ssDNA donors (1ug of each donor, Supplementary Table 1) for each well of a 6-well plate.
# The effects of the compounds on cell viability were evaluated using the AlamarBlue assay using the NCI60 methodology.^57 Cells were harvested and plated in 384-well plates (Greiner μClear) at a concentration of 1250 cells/well in 40 μL, and incubated for 24 h at 37° C. The next day, test compounds were added to the cells as a 2×40μL solution, and incubated for 48 h at 37° C.
# [2] = tested on: Human Microvascular Endothelial cell cultures; conditions: FIG. 3C, dose response
SMILES,no efficacy against K-562 cells up to [1] [µM],anti-angiogenesis effect (number of loops) [2]
"C#Cc1cc(C(=O)Nc2ccc(CN3CCN(C)CC3)c(C(F)(F)F)c2)ccc1OC [Compound 29, 3-ethynyl-4-methoxy-N-(4-((4-methylpiperazin-1-yl)methyl)-3-(trifluoromethyl)phenyl)benzamide]",> 10,
"Cc1ccc(C(=O)N2CCN(C)CC2)cc1C#Cc1cnc2cccnn12 [Compound 10a, (3-(imidazo[1,2-b]pyridazin-3-ylethynyl)-4-methylphenyl)(4-methylpiperazin-1-yl)methanone]",> 10,
Cc1ccc(C(=O)Nc2ccc(CN3CCN(C)CC3)c(C(F)(F)F)c2)cc1C#Cc1cnc2cccnn12 [Ponatinib],,potent inhibitory effect against angiogenesis
"Cc1ccc(C(=O)Nc2ccc(CN3CCN(C)CC3)c(C(F)(F)F)c2)cc1 [Compound 21a, 4-methyl-N-(4-((4-methylpiperazin-1-yl)methyl)-3-(trifluoromethyl)phenyl)benzamide]",> 10,
